Experimental data from patent publication EP0090736A1, “Steroidal nitroso ureum with oncostatic activity, process for its preparation and its use as a medicine” (Etablissement Public dit: CENTRE NATIONAL DE LA RECHERCHE …, priority 1982, dated 1983).
At least one compound was matched to its structure with a doubt left.

Test system: leucémie L1210
Test: Oncostatic activity on L1210 leukemia in mice (survival T/C)
Format: in vivo, souris (DBA2 - C57BL 100)
Settings: 10^5 cells i.p., treatment on days 1, 5 and 9, suspension in olive oil, MEDI described as median doses
Text: Le composé selon la présente invention a été étudié sur la leucémie L1210 en comparaison avec d'autres nitrosourées présentant également des propriétés oncostatiques. Il s'agit essentiellement de la BCNU, la CCNU, la Me CCNU, la RFCNU, la RPCNU et la Chlorozotocine. Ces composés, ainsi que le XPCNU, sont bien connus et décrits par exemple dans Biomedicine Express, vol. 23, n° 10 du 10 décembre 1975, pages 410-413.
Pour chaque composé, 10^5 cellules leucémiques ont été inoculées à 80 souris (DBA2 - C57BL 100), par voie intrapéritonéale.
Les traitements ont débuté un jour après la transplantation et ont été poursuivis les cinquième et neuvième jours. Les dérivés devant être testés sont administrés en suspension dans l'huile d'olive à 70 souris. Les doses injectées sont variables, chaque souris étant pesée individuellement. Les 10 souris restantes constituent le groupe témoin et reçoivent, en placébo, des volumes équivalents d'huile d'olive.
Le premier jour, les nitrosourées testées sont administrées, en doses variables, aux souris traitées.
Les cinquième et neuvième jours, les injections sont renouvelées sans signe macroscopique de toxicité.
Pour chaque composé, les activités oncostatiques ont été déterminées pour une dose spécifique et varient en fonction de la quantité administrée. Lorsque l'activité oncostatique est supérieure à 125 et si la différence des groupes témoins et traités à une signification statistique (test de WILCOXON), le composé est considéré comme étant actif à la dose utilisée.
La figure ci-annexée indique en fonction des doses de principe actif appliquées en milligramme par kilogramme le rapport T/C défini comme suit : T/C = moyenne de survie des groupes traités / moyenne de survie des groupes témoins x 100
La mention ∞ indique que plus de 50 % des animaux traités sont guéris.

Work on `O=NN(CCCl)C(=O)N[C@H]1C(O)O[C@H](CO)[C@@H](O)[C@@H]1O` (stereo partly shown) [CZT, Chlorozotocine] yielded an MEDI of 10 to 20 mg/kg.

Work on `CC1(C)O[C@@H]2[C@@H](COC(=O)c3ccc([N+](=O)[O-])cc3)OC(NC(=O)N(CCCl)N=O)[C@@H]2O1` (stereo partly shown) [RFCNU] yielded an MEDI of 15 to 30 mg/kg.

`CC(=O)O[C@@H]1[C@H](OC(C)=O)COC(NC(=O)N(CCCl)N=O)[C@@H]1OC(C)=O` (stereo partly shown) [RPCNU] showed an MEDI of 10 to 15 mg/kg.

`CC(=O)OC1COC(NC(=O)N(CCCl)N=O)C(OC(C)=O)C1OC(C)=O` (stereo not shown) [XPCNU] was tested, and the MEDI was 10 to 15 mg/kg.
